Results are given in words; binding and its absence hold for the method and conditions named. In cells and extracts the contact can be indirect. Some binding calls cover weakened binding; strength is not graded here.
Target: SOX9 (human (endogenous in HepG2)) (UniProt P48436)
Test: co-IP; lysates of HepG2 cells transduced with Ad-GFP or Ad-ARMCX3 (48 h) incubated 2 h with anti-SOX9 antibody or rabbit IgG isotype control on Protein A magnetic beads, eluted with Laemmli buffer, blotted with anti-ARMCX3

Chains of the proteins cited; added tags and fusions are not shown.
UniProt P48436: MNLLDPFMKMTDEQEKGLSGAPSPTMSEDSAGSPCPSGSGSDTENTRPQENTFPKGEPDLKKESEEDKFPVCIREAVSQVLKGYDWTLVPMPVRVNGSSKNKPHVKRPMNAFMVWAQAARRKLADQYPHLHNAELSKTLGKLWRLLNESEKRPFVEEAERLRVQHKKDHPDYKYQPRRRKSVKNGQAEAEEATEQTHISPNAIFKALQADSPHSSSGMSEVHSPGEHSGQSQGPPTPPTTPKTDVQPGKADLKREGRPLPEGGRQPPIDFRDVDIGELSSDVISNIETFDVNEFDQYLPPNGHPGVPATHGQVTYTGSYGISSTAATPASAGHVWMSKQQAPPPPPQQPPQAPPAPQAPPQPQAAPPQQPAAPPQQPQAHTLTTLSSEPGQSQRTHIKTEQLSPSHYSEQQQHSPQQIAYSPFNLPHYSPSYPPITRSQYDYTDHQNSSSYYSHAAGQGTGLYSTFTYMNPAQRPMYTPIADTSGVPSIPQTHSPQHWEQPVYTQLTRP

binding: binds
B1: ARMCX3 (murine transgene Armcx3) (protein, UniProt Q8BHS6 1-379)
chain: MGYARKVGWVTAGLVIGAGACYCIYRLTRGRKQNKEKMAEGGSGDVDDAGDCSGARYNDWSDDDDDSNESKSIVWYPPWARIGTEAGTRARARARARATRARRAVQKRASPNSDDTVLSPQELQKVLCLVEMSEKPYILEAALIALGNNAAYAFNRDIIRDLGGLPIVAKILNTRDPIVKEKALIVLNNLSVNAENQRRLKVYMNQVCDDTVTSRLNSSVQLAGLRLLTNMTVTNEYQHILANSISDFFRLFSAGNEETKLQVLKLLLNLAENPAMTRELLRAQVPSSLGSLFNKKEYKEVILKLLIIFENINDNFKWEENEPAQNHFSEGSLFFFLKEFQVCADKVLGIESRHDFQVRVKVGKFVAKLTERMFPKSQE

— publication PMC7961652
